# PubChem BioAssay AID1259254, NCATS, 2017
# Screen: 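Finding genes that stop cells copying their DNA twice in one cycle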 (primary screen)
# System: human HCT116 colorectal cancer cells
# Reagents: single siRNA against human genes
# Timing: 3 days
# Detection: 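Imaged Hoechst DNA stain sorts each cell into a cycle phase by DNA amount; per plate, G2 fraction set to 0% for non-targeting and 100% for GMNN siRNA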
# Reading the numbers: G2 robust z-score and G2 cells, % of GMNN control: higher = more G2 cells, more excess DNA replication; raw share of cells in G2: higher = larger share of cells with G2 DNA content
# Active means: 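An siRNA counts as active if its G2 robust z-score lies at least 5 MADs above the screen median; here such calls match roughly 38% of GMNN control or more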
# Here is an unselected part of about 59,000 reagents tested. About 1,550 of them (2.6%) count as active. 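G2 share is only a proxy for re-replication; each gene was hit by three separate siRNAs, and active genes were retested.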 The raw values are shown without normalisation. A number with no mark means an inactive call. The numbers tell different reagents against one gene apart. Not stated in the record: the amount of reagent.
gene knocked down,reagent no.,G2 robust z-score,"G2 cells, % of GMNN control",raw share of cells in G2 (%)
FBXL9P,1,1.51,13.6,8.05
FBXL9P,2,0.58,7.05,7.06
FBXL9P,3,0.202,4.39,5.84
OAS1,1,2.46,20.3,13
OAS1,2,0.0199,3.11,4.26
OAS1,3,1.42,12.9,10.1
TBL1XR1,1,0.584,7.08,7.38
TBL1XR1,2,-0.262,1.12,4.79
TBL1XR1,3,0.992,9.94,5.1
TMEM79,1,-0.24,1.28,2.79
TMEM79,2,-0.57,-1.04,3.76
TMEM79,3,-1.08,-4.66,2.07

Not a retest: entries from further up.
gene knocked down,reagent no.,G2 robust z-score,"G2 cells, % of GMNN control",raw share of cells in G2 (%)
TBL1XR1,1,0.584,7.08,7.38
TBL1XR1,2,-0.262,1.12,4.79
TBL1XR1,3,0.992,9.94,5.1
TMEM79,1,-0.24,1.28,2.79

The results go on:
gene knocked down,reagent no.,G2 robust z-score,"G2 cells, % of GMNN control",raw share of cells in G2 (%)
DRC9,1,-0.529,-0.754,3.86
DRC9,2,1.8,15.6,8.09
DRC9,3,-0.137,2,3.01
PTGER1,1,1.08,10.6,8.61
PTGER1,2,2.51,20.6,12.6
PTGER1,3,0.304,5.11,5.84
POMT1,1,1.38,12.7,11.5
POMT1,2,0.0452,3.29,7.12
POMT1,3,0.161,4.1,5.17
NEFL,1,1.42,12.9,10.4
NEFL,2,-0.903,-3.38,2.08
NEFL,3,0.959,9.72,9.32
LOC729879 (retired record),1,-0.183,1.68,3.79
LOC729879 (retired record),2,2,17,10.8
LOC729879 (retired record),3,-0.11,2.2,3.96
MT1XP1,1,-0.0516,2.6,3.87
MT1XP1,2,0.121,3.82,5.22
MT1XP1,3,0.121,3.82,4.64
